Consider four substances from PMC10977894.

Sequences of proteins named here, by UniProt entry; tags and fusion partners are left off. Residues count along the entry.
UniProt P03428, residues 1-247: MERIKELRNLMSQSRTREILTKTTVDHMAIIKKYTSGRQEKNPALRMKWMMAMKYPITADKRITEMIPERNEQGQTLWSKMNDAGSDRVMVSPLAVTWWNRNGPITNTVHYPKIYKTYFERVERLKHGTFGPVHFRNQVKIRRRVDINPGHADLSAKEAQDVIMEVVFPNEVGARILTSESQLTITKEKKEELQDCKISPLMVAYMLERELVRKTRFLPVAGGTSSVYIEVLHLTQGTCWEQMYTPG
UniProt P46379: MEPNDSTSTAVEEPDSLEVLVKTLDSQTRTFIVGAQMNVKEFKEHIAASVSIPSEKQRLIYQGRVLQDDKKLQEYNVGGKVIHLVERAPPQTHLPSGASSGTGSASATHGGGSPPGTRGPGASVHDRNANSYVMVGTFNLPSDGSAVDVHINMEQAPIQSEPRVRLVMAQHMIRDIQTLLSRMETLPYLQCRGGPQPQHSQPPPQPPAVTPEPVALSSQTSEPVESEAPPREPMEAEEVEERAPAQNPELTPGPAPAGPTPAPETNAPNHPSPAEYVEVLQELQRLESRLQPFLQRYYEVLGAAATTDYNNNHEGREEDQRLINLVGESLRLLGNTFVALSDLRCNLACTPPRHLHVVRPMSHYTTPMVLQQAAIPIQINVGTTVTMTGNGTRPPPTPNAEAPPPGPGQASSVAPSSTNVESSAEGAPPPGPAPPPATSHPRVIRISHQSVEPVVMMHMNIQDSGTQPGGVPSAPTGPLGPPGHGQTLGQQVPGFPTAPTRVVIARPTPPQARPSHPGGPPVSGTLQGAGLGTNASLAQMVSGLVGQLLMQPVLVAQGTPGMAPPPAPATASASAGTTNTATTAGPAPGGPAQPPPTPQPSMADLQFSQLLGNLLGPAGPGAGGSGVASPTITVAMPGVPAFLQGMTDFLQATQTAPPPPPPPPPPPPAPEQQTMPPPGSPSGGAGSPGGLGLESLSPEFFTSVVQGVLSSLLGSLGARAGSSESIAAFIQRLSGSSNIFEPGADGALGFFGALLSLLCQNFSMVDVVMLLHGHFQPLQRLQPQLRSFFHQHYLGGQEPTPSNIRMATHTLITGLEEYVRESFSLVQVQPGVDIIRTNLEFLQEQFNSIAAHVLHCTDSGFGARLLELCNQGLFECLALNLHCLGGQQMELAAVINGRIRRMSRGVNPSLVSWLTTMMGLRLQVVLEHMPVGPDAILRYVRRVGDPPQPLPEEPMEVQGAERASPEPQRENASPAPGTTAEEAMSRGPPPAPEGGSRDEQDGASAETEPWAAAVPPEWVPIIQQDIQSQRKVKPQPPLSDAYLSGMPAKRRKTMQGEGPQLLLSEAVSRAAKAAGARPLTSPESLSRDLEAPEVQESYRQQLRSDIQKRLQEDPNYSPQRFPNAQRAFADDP
UniProt P03466: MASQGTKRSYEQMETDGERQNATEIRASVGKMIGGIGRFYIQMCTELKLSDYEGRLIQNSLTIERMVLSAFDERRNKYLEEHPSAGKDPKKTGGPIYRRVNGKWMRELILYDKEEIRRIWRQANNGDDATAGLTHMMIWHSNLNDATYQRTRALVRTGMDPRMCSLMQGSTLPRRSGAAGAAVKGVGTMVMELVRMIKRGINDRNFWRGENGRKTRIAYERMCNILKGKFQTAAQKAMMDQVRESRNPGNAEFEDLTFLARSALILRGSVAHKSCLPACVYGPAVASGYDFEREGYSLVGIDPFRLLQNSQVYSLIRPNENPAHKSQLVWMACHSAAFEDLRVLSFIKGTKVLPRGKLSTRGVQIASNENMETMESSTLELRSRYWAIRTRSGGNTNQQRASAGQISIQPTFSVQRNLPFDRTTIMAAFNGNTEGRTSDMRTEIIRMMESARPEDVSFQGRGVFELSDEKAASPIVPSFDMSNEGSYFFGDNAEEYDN
UniProt P03431: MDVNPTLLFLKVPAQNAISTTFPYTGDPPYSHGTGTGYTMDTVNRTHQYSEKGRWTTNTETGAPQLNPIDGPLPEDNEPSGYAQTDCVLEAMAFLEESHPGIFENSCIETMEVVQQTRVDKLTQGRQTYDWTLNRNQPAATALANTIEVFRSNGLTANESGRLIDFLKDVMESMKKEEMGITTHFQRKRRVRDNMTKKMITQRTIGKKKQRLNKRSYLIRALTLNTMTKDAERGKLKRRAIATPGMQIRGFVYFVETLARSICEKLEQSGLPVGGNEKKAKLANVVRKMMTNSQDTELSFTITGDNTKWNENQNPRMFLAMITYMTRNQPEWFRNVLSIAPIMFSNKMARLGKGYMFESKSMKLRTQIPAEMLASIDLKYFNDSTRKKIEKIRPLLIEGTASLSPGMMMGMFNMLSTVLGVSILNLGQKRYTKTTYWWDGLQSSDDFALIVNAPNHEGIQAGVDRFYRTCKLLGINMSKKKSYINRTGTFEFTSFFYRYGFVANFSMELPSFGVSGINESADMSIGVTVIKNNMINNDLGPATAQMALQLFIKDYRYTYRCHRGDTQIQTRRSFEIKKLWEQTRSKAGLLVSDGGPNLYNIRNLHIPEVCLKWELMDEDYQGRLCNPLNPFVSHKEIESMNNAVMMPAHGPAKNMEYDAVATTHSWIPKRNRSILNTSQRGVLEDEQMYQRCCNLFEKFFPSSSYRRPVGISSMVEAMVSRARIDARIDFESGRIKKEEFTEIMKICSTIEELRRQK

These are yes or no findings as the source states them, for the method shown. Binding seen in cells or lysates may run through a third protein. Some results given as binding are weak or reduced against the parent protein; the word gives no strength.

Test [1] addresses N-terminal PB2-Flag (residues 1-247) (influenza A virus (strain not stated)) (UniProt P03428). As to the kind of experiment: co-IP.
Test [2] addresses BAG6-HA (BCL2-associated athanogene 6, full-length, HA-tagged) (UniProt P46379). Put plainly: co-IP.

As to “BAG6-HA (BCL2-associated athanogene 6, full-length, HA-tagged) (from UniProt P46379 1-1132)”, the binding result in test [1] was “binds”.
“M1 of H1N1 PR8 virus in infected cells (from UniProt P03485 1-252)”: the binding result in test [2] is recorded as “no binding”.
Still for that read-out and setting: then NP-Flag (from UniProt P03466 1-498), with “no binding”; and PB1-Flag (from UniProt P03431 1-757), with “no binding”.
